From patent US20220143204A1
Results are given in words; binding and its absence hold for the method and conditions named. Some entries that bind do so weakly or less than the wild type. Values belong to the binder of their own block, whether it stands above or below them.

Amino acid sequences for entries named in this document (tags omitted). Residues count along the entry.
UniProt P11717, residues 41-2491: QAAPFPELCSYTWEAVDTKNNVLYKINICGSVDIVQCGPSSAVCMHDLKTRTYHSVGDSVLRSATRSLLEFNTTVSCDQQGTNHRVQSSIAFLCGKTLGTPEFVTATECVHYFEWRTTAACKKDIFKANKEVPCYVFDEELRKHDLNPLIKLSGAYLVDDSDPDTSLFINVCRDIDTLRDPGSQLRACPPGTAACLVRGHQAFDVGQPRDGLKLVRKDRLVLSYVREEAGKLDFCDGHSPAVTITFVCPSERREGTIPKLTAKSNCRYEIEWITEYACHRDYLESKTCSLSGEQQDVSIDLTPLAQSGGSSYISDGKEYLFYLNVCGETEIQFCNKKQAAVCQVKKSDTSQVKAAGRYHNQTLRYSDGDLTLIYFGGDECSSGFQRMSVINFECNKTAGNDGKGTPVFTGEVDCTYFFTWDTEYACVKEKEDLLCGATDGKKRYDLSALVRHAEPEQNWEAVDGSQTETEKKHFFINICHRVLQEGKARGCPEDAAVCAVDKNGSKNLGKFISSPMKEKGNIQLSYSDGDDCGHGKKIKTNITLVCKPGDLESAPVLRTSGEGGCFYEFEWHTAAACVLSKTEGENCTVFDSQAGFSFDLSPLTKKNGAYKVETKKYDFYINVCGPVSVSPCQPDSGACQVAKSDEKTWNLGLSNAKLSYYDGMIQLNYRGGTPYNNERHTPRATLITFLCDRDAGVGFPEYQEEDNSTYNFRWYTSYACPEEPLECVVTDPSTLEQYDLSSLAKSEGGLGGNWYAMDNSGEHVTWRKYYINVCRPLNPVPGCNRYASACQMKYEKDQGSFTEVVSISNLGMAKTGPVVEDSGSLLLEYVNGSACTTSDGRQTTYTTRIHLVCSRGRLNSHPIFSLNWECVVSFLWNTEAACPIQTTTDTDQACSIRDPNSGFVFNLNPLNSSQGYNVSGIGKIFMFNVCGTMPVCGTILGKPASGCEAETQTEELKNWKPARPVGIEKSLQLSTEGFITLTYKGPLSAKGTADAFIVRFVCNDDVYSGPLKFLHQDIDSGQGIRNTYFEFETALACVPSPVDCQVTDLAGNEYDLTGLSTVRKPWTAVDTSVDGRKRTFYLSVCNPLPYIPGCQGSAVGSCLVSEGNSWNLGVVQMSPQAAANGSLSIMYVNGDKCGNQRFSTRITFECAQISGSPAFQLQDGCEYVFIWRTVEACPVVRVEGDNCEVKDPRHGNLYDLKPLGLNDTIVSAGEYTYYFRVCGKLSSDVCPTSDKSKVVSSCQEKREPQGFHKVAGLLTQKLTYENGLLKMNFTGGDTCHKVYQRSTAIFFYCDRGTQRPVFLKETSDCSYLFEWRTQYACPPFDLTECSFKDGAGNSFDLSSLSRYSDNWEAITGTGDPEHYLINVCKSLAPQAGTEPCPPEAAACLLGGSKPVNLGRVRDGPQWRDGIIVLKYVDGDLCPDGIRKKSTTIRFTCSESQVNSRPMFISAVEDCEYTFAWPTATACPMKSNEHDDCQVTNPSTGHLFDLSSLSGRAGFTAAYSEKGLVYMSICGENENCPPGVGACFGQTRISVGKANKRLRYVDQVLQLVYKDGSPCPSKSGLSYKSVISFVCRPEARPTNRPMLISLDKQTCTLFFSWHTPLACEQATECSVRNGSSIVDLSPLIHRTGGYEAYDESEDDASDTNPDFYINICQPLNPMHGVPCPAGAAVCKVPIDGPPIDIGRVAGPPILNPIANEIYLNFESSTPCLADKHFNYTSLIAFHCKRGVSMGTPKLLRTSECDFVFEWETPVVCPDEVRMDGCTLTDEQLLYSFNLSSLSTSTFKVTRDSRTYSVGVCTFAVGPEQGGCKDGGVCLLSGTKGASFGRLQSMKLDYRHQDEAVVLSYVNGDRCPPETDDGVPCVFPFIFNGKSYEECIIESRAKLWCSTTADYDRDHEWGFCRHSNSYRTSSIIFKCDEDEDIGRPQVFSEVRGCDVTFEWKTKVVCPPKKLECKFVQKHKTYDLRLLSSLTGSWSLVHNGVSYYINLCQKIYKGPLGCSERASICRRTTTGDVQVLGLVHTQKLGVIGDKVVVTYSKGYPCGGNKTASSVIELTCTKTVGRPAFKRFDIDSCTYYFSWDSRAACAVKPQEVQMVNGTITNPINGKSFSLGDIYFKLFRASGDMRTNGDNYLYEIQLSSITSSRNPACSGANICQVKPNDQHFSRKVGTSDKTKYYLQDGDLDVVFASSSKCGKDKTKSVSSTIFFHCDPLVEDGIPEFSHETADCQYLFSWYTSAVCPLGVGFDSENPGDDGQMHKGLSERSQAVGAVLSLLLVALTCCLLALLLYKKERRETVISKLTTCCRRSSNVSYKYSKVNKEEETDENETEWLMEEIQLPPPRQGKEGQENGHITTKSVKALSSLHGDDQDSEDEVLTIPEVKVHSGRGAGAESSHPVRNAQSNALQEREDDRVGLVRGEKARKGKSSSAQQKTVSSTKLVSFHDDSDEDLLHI

What was measured:
rat IGF2R on cells (rat) [1] = assay: binding assay of the IRDye800CW conjugate on SCC VII cells over-expressing rat IGF2R, fluorescence intensity
rat IGF2R on cells (rat) [2] = assay: staining of liver cryo-sections of BDL rats, confocal microscopy
[3] = biological target: human IGF2R on cells (human) (UniProt P11717); assay: binding assay of the IRDye800CW conjugate on SCC VII cells transfected with human IGF2R, fluorescence at 800 nm

binding (rat IGF2R on cells (rat) [1]): binds
B1: 13F11-13E8-IRDye800CW (VHH, not shown: small tags and cut ends)
chain: EVQLVESGGRLVQPGDSLRLSCAASGRTFSDNAMGWFRQAPGKERRFVAGISWAGGSTYYSDSVKGRFTISRDNAKNTVYLQMNSLKPEDTAVYYCAAGLRAWVQRMPKDYNYWGQGTQVTVSSGGGGSGGGGSGGGGSEVQLVESGGGLVQAGGSLRLSCAASRSISPMGWYRQAPGKQRELVAIMPSSGPPIYADSVQGRFTISRDNAKNTVYLQMNSLKPEDTAVYYCNVGGGYWGQGTQVTVSS
modifications: IRDye800CW by maleimide chemistry on the C-terminal free cysteine

binding (rat IGF2R on cells (rat) [2]): binds
B2: 13F11-13E8 conjugated to Alexa Fluor 647 (VHH, not shown: small tags and cut ends)
chain: EVQLVESGGRLVQPGDSLRLSCAASGRTFSDNAMGWFRQAPGKERRFVAGISWAGGSTYYSDSVKGRFTISRDNAKNTVYLQMNSLKPEDTAVYYCAAGLRAWVQRMPKDYNYWGQGTQVTVSSGGGGSGGGGSGGGGSEVQLVESGGGLVQAGGSLRLSCAASRSISPMGWYRQAPGKQRELVAIMPSSGPPIYADSVQGRFTISRDNAKNTVYLQMNSLKPEDTAVYYCNVGGGYWGQGTQVTVSS
modifications: Alexa Fluor 647 by maleimide chemistry on the C-terminal free cysteine

binding [3]: no binding (tested: 500 nM)
B3: SP28P-SP26P-IRDye800CW (VHH, not shown: small tags and cut ends)
chain: EVQLVESGGGLVQAGGSLRLSCAASGSIVSFNGINWYRQAPGKQREWVGGITQGGNTMYADSVRGRFTISRDNTKNTMYLQMNSLKPEDTAVYYCRRPPVASWGQGTQVTVSSGGGGSGGGGSGGGGSEVQLVESGGGLVQAGGSLRLSCAASGRSFSSSVMGWFRQTPGKEREFVAATRWTAASTHYADSVKGRFTISRDHAENAVFLQMNSLKPEDTAVYYCAAGNYLDTAQYRYNYWGQGTQVTVSS
modifications: IRDye800CW by maleimide chemistry on the C-terminal free cysteine
